Measurements taken from PubChem BioAssay AID2417 (National Center for Advancing Translational Sciences (NCATS), 2010).
Out of some 140,000 compounds screened, about 4,300 (3.1%) were called active. The inconclusive results got no clear call from the source; some entries with a clear call stand among them for comparison.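 The calls were made as follows: active = readout at or below -70, meaning at least 70% loss of cells showing the perinucleolar compartment, a nuclear body marking cancer cells; inconclusive = readout between -30 and a set limit; inactive = the rest.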

test: High Content Assay for Compounds that inhibit the Assembly of the Perinucleolar Compartment; conditions: PC3M PTB-GFP, PNC prevalence imaging, 16 h; at 10 µM; active compounds read low;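 also: plate controls were DMSO wells for no effect and camptothecin positive control wells for full effect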
Outline: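 Compounds are pinned in duplicate onto adhered PC3M cells stably expressing GFP-tagged PTB and incubated 16 h at 37 C. Cells are then fixed, nuclei stained with Hoechst, and PNC-positive cells counted.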

Compound | activity change (PNC), negative = inhibition
CC(C)Sc1nc2sc(-c3ccccc3)cc2c(=O)n1N | active: -106%
CCCCn1c(CNC(=O)C23CC4CC(CC(C4)C2)C3)nnc1SCC(=O)Nc1nnc(C)s1 | inconclusive: -62.1%
O=C(CCn1c(=O)sc2ccccc21)NCc1ccc2c(c1)OCO2 | active: -119%
COCCNC(=O)c1ccc(Cn2c(=S)[nH]c3cc4c(cc3c2=O)OCO4)cc1 | inconclusive: -32.7%
COc1ccc(C(=O)/C=C\N2CCOCC2)cc1 | inconclusive: -52%
C1CCCCCC2(CCCCC1)OCC(CN1CCOCC1)O2 (centres undefined) | inconclusive: -31%
CC(=O)N=c1sc(C(C)(C)C)c(C)n1C | inactive: 46.2%
CC(=O)c1oc2ccccc2c1NC(=O)CN1CCCCC1 | inconclusive: -41.3%
O=C(N/N=C/c1cccnc1)C(O)(c1ccccc1)c1ccccc1 | inactive: 95.3%
CCOC(=O)c1[nH]c2ccc(OC)cc2c1NC(=S)N1CCN(c2ccccc2OC)CC1 | inconclusive: -67.6%
NC(=S)N/N=C\c1c2ccccc2cc2ccccc12 | inconclusive: -47.7%
CC(C)OC(=O)CC12CN3CN(C1)CC(CC(=O)OC(C)C)(C3)C2=O | inconclusive: -33.9%
CCC(=O)NC(Nc1ccccn1)(C(=O)OC)C(F)(F)F (centres undefined) | inconclusive: -41.8%
Cc1cc(F)ccc1S(=O)(=O)N1CCCOC1CNC(=O)C(=O)NCCC1=CCCCC1 (centres undefined) | inactive: 14.2%
COc1ccc(C(=O)CSc2nnc(-c3cc(C)on3)o2)cc1 | inconclusive: -49.8%
COc1ccccc1-n1c(=O)[nH]c2c(C(N)=O)nc(C3CCCCC3)nc21 | inconclusive: -42.8%
CSCCC(NC(=O)c1ccccc1)C(=O)NC1CCCC1 (centres undefined) | active: -83.8%
COc1ccccc1S(=O)(=O)c1ccccc1[N+](=O)[O-] | inactive: -14.5%
COc1ccc(CCNC(=O)c2cccnc2)cc1OC | inactive: 21.2%
CC(C)(C)n1nnnc1CN1CCN(C(c2ccccc2)c2ccccc2)CC1 | inconclusive: -44.1%
COc1ccc(CCN2C(=O)c3[nH]nc(-c4ccccc4O)c3C2c2cccc(Cl)c2)cc1 (centres undefined) | inconclusive: -34.4%
OCCCNc1nc(-c2ccc(Cl)cc2)nnc1-c1ccccc1 | inconclusive: -41.4%

Compound | activity change (PNC), negative = inhibition
COc1ccc(-c2cc(C(=O)Oc3ccc([N+](=O)[O-])cc3)c3ccccc3n2)cc1 | inconclusive: -44.1%
COc1ccc(NC(=O)C2CCCN(S(=O)(=O)c3ccc4c(c3)oc(=O)n4C)C2)c(OC)c1 (centres undefined) | inactive: -28.4%
COc1ccc(-c2[nH]n(-c3ccc([N+](=O)[O-])cc3)c(=O)c2C=NCc2ccccc2)cc1 | inconclusive: -41.2%
CCc1ccc(Nc2cc(=O)n(C3CCCCC3)c(=O)[nH]2)cc1 | inactive: 18.2%
COc1ccc(N(C)S(=O)(=O)c2ccc3c(c2)oc(=O)n3C)cc1 | inconclusive: -57.4%
CCOC(=O)CSc1nc2cc(C(=O)NCC3CCCO3)ccc2c(=O)n1Cc1ccco1 (centres undefined) | active: -87.8%
Cc1ccc(O)c(C2=NNC(O)(C(F)(F)F)C2)c1 (centres undefined) | inactive: 26.9%
Cc1ccc(-c2csc(=Nc3cccnc3)n2CCCn2ccnc2)cc1C | inactive: -9.64%
CC(C)CC1=NC(C(F)(F)F)(C(F)(F)F)c2c(n(CC(C)C)c(=O)[nH]c2=O)N1 | inconclusive: -50.4%
O=C(Oc1ccc(OC(=O)N2CCOCC2)cc1)c1ccccc1 | inconclusive: -78.3%
O=c1[nH]n(-c2cccc3cccnc23)c(=O)c2ccccc12 | inactive: -3.95%
COC(=O)c1sccc1NC(=O)c1sccc1C | active: -100%
O=C(Nc1ccc(S(=O)(=O)NCc2ccccc2)cc1)c1ccc(Br)o1 | inconclusive: -35.8%
COc1ccc(CCC(=O)N2CCN(S(=O)(=O)c3ccc4ccccc4c3)CC2)cc1 | inactive: -23.8%
O=c1c2c(ncn2C2CCCC2)n(Cc2ccccc2)c(=O)n1CCOc1ccc(Br)cc1 | inconclusive: -32.8%
Cc1nn(-c2ccccn2)c2c1C(c1ccccc1Cl)C1=C(N2)c2ccccc2C1=O (centres undefined) | inconclusive: -30.1%
Cc1ccc(NC(=O)c2ccccc2NC(=O)CCC(=O)O)cc1 | inconclusive: -38.7%
Oc1c(CN2CCc3ccccc3C2)cc(Cl)c2cccnc12 | inconclusive: -48.3%
CN(C)c1ccc(NC(=O)COC(=O)CCC(=O)c2ccc(F)cc2)cc1 | inactive: 47.9%
O=C(COc1ccccc1O)Nc1ccccc1Cl | inconclusive: -61.2%
CCC(/C=N/Nc1ccc(S(=O)(=O)N2CCCC2)cc1[N+](=O)[O-])CC | inconclusive: -31.4%
COc1ccc(C2C3=C(CCCC3=O)Nc3nc(SCc4ccccc4)nn32)cc1OC (centres undefined) | active: -85.8%

Looked up one by one from the entries so far, two records:
Compound | activity change (PNC), negative = inhibition
O=C(COc1ccccc1O)Nc1ccccc1Cl | inconclusive: -61.2%
Cc1ccc(-c2csc(=Nc3cccnc3)n2CCCn2ccnc2)cc1C | inactive: -9.64%
